# Laboratory results reported in the supplement of paper PMC10849652.
# Chains of the proteins cited; added tags and fusions are not shown. Lines headed by an entry give the natural chain unless they say otherwise; changes in a name come on top.
# UniProt P80303: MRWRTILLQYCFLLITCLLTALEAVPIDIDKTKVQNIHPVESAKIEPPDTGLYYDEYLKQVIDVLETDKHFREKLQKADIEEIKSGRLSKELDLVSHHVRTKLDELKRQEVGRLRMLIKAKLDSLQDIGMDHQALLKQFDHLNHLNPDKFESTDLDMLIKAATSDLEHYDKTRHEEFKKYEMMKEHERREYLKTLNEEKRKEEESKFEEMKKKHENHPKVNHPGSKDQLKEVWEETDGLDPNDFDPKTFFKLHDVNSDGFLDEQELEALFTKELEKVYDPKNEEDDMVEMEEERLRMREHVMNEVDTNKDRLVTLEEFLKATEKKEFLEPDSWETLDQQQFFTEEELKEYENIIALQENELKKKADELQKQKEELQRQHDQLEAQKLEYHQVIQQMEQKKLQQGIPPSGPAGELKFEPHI
# UniProt Q5TFE4: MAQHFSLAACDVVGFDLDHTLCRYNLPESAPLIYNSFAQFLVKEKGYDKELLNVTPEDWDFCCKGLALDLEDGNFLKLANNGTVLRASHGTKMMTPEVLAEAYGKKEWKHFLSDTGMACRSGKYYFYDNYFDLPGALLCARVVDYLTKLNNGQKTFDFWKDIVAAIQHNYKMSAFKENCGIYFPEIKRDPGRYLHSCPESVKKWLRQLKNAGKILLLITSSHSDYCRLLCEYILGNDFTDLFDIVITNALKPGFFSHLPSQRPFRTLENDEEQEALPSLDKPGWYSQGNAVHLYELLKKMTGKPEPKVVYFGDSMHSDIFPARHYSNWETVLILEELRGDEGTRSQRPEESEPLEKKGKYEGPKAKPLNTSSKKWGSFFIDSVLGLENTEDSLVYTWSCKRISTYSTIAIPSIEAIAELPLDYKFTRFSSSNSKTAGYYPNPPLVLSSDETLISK
# UniProt Q9BRP4: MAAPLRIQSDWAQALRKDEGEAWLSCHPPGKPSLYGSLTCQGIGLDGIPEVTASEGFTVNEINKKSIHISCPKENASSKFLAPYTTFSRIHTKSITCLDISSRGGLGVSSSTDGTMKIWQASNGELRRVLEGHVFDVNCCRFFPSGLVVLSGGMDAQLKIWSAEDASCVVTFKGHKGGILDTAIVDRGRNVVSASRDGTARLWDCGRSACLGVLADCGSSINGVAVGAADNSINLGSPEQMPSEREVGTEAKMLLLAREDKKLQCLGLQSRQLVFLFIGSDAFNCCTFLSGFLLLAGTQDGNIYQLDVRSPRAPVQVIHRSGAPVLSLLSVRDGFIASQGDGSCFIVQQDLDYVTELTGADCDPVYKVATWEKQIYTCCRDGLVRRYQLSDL
# UniProt Q8N573: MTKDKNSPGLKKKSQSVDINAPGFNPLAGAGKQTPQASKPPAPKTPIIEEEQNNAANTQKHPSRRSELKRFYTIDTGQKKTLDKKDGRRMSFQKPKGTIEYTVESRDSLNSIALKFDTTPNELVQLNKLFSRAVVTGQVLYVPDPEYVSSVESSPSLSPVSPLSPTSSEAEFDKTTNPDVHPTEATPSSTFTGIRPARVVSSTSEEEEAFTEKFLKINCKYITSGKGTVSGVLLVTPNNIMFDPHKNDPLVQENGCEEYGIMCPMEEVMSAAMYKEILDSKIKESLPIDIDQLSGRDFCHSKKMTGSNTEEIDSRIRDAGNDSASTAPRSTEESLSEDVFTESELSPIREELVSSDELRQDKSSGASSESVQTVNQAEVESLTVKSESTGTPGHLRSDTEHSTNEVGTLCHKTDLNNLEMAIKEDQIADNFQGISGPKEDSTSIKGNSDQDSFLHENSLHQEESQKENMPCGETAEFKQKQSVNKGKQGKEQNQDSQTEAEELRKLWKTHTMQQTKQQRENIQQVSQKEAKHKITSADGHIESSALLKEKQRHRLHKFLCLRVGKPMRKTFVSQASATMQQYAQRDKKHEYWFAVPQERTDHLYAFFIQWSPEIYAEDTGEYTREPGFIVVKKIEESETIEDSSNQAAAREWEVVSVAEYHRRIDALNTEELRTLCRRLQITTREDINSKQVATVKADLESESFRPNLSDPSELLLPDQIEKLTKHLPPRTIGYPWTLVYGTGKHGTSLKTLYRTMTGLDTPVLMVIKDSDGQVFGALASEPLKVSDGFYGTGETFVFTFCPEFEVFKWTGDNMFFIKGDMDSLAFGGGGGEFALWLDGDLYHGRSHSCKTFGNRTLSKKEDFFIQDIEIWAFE
# UniProt Q96DE0: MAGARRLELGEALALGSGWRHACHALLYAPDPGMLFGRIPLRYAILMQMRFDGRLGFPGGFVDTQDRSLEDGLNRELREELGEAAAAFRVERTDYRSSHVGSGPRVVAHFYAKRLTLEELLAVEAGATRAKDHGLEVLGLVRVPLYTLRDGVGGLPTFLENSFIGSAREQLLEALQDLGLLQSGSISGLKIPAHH
# UniProt P52948: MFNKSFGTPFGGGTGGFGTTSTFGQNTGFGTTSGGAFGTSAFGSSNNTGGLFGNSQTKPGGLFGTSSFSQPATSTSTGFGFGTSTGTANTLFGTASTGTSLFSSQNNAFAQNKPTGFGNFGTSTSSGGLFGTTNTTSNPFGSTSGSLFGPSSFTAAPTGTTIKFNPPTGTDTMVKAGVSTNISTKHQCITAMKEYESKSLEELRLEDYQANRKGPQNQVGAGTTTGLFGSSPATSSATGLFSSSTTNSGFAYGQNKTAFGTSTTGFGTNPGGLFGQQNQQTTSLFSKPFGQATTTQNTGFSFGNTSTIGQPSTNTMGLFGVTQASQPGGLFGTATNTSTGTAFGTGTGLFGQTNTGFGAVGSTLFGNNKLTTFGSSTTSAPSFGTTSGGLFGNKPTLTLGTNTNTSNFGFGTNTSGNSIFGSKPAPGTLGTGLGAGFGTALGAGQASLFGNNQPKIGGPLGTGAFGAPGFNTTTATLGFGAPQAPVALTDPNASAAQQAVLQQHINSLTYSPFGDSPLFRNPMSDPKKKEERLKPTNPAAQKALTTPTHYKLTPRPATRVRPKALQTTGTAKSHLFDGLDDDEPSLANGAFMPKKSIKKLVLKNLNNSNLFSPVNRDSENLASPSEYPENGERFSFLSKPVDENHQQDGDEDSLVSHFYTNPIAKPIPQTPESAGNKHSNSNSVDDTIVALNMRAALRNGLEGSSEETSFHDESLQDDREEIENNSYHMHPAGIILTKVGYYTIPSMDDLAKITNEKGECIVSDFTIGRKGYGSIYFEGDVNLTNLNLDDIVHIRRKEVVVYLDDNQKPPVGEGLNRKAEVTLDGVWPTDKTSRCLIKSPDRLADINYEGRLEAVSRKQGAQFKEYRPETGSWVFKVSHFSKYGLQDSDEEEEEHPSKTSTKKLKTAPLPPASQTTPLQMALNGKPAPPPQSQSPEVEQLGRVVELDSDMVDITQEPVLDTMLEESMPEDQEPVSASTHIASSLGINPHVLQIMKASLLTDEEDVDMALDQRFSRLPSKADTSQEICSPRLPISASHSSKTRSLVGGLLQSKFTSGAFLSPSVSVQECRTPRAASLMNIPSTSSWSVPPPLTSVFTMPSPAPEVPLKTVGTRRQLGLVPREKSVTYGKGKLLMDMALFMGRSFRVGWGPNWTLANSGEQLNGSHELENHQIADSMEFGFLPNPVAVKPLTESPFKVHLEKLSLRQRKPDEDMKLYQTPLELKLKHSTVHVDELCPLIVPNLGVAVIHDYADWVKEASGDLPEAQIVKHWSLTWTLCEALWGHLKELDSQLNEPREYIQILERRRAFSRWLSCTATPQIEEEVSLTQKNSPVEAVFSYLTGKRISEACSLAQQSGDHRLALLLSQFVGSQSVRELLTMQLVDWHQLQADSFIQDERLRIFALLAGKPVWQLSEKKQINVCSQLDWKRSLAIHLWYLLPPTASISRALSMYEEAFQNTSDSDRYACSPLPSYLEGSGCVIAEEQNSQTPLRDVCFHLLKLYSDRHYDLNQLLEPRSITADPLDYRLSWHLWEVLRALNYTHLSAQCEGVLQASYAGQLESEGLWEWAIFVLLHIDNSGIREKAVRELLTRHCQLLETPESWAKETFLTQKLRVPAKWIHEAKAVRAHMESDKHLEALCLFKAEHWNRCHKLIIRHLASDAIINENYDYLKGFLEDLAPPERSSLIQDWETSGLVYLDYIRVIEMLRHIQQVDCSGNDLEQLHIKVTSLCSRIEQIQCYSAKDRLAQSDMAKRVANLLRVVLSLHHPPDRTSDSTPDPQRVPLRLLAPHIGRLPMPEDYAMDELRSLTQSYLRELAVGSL
# UniProt Q8WVJ2: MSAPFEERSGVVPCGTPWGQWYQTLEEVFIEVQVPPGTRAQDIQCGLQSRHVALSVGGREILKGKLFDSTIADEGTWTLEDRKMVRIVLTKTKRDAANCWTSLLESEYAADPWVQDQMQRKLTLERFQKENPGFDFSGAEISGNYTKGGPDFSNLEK
# UniProt P13674: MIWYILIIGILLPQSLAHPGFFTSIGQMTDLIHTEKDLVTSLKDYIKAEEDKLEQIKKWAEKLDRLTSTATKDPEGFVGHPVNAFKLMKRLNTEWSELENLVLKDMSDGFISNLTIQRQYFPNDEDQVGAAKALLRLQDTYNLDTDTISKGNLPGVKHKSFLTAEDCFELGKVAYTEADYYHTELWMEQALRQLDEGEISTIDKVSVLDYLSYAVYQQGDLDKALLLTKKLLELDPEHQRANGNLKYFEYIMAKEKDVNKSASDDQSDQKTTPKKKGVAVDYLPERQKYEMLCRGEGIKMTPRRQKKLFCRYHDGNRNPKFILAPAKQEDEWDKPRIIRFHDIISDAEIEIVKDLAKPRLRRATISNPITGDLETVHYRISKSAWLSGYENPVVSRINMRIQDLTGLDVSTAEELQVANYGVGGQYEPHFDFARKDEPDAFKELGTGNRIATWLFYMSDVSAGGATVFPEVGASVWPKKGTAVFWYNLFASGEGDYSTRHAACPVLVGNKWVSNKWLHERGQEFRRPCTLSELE
# UniProt P04181: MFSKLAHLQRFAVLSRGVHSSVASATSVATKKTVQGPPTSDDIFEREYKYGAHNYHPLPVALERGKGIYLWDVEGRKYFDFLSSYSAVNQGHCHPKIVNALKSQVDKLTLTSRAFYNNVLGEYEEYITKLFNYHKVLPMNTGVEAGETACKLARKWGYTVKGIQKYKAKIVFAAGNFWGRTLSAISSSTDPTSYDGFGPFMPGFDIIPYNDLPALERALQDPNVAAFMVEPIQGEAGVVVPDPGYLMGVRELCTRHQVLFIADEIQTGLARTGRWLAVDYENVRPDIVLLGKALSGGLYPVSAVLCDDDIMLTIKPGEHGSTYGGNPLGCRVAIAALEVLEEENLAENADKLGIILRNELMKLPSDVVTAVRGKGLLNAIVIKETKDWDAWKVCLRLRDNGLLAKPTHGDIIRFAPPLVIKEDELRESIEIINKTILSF
# UniProt Q8WUM0: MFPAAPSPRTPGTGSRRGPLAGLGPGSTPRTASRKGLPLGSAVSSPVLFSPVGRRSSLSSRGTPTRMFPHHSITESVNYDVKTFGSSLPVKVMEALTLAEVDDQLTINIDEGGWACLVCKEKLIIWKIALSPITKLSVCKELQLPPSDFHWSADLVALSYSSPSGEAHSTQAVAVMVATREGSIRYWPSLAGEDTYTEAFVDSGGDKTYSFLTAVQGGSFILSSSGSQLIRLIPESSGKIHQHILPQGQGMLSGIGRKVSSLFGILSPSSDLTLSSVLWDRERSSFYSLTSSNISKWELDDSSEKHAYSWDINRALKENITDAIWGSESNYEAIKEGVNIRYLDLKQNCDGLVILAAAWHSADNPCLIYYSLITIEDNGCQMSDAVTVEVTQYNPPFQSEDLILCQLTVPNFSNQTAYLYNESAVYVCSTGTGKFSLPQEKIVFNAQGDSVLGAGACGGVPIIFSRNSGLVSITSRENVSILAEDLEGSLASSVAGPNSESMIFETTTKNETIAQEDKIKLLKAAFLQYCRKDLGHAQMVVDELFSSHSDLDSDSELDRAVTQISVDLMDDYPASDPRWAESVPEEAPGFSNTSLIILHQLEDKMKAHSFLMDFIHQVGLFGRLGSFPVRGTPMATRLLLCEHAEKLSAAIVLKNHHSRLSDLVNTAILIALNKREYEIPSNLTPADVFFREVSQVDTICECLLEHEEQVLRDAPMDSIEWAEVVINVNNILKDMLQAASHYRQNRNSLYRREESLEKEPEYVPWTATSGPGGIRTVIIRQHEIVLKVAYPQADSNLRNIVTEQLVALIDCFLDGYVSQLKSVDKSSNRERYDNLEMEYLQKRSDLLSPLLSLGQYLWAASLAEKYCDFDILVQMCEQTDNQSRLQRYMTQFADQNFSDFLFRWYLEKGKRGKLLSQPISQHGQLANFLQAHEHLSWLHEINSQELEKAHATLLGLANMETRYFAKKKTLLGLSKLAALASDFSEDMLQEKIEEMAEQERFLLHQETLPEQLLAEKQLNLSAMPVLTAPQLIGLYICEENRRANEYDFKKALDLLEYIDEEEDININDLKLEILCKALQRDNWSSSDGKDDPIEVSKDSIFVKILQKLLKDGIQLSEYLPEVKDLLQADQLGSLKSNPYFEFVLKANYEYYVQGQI
# The other results are listed elsewhere or left out.
# Tests used:
# Assay in all cases: log2 fold change, soluble protein after heating vs DMSO (PISA); higher = thermal stabilisation; K562 cells, 10 uM, 30 min; active = over 0.2 and 3.5 SD of the protein, either way, in both replicates (recomputed)
# bafetinib = compound: Cc1ccc(NC(=O)c2ccc(CN3CC[C@H](N(C)C)C3)c(C(F)(F)F)c2)cc1Nc1nccc(-c2cncnc2)n1 [bafetinib]
# How it was run: (§1)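 K562 cells at 2×10^6 cells/mL were treated with 10 μM compound for 30 min. Aliquots were heated for 3 min across 48°C-58°C, pooled, and extracted in PBS with 0.5% NP-40 at 4°C; soluble protein was the supernatant after 21,000xg for 90 min. Soluble protein was quantified by TMTpro 16plex LC-MS/MS with channel sums equalised, and reported as log2 fold change in thermal stability against DMSO controls, with values from duplicates.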
# [1] = compound: Cc1cccc(CC(=O)N2CCc3c2ccc(-c2cn(C)c4ncnc(N)c24)c3F)n1
# How it was run: as §1
# nilotinib = compound: Cc1cn(-c2cc(NC(=O)c3ccc(C)c(Nc4nccc(-c5cccnc5)n4)c3)cc(C(F)(F)F)c2)cn1 [nilotinib]
# How it was run: as §1
# [2] = compound: Cc1nc(Nc2n[nH]c3c2CN(C(=O)N[C@H](CN(C)C)c2ccccc2)C3(C)C)c2sccc2n1
# How it was run: as §1
# dasatinib = compound: Cc1nc(Nc2ncc(C(=O)Nc3c(C)cccc3Cl)s2)cc(N2CCN(CCO)CC2)n1 [dasatinib]
# How it was run: as §1
# [3] = compound: Cc1ncc(-c2ccnc(Nc3ccc(S(C)(=O)=O)cc3)n2)n1C(C)C
# How it was run: as §1
# [4] = compound: Cn1cc(-c2ccc3c(c2)CCN3C(=O)Cc2cccc(C(F)(F)F)c2)c2c(N)ncnc21
# How it was run: as §1
# [5] = compound: Cn1cc(-c2ccc3nnc(C(F)(F)c4ccc5ncccc5c4)n3n2)cn1
# How it was run: as §1
# tipifarnib = compound: Cn1cncc1[C@@](N)(c1ccc(Cl)cc1)c1ccc2c(c1)c(-c1cccc(Cl)c1)cc(=O)n2C [tipifarnib]
# How it was run: as §1
# mubritinib = compound: FC(F)(F)c1ccc(/C=C/c2nc(COc3ccc(CCCCn4ccnn4)cc3)co2)cc1 [mubritinib]
# How it was run: as §1
# [6] = compound: NC(=O)Nc1cc(-c2cccc(F)c2)sc1C(=O)N[C@H]1CCCNC1
# How it was run: as §1
# [7] = compound: NC(=O)c1cnc(N[C@@H]2CCCC[C@@H]2N)nc1Nc1cccc(-n2nccn2)c1
# How it was run: as §1
# [8] = compound: NC1(c2ccc(-c3nc4ccn5c(=O)[nH]nc5c4cc3-c3ccccc3)cc2)CCC1
# How it was run: as §1
# [9] = compound: NCC(=O)Nc1ccc(-n2nc(C(F)(F)F)cc2-c2ccc3c(ccc4ccccc43)c2)cc1
# How it was run: as §1
# entinostat = compound: Nc1ccccc1NC(=O)c1ccc(CNC(=O)OCc2cccnc2)cc1 [entinostat]
# How it was run: as §1
# vorinostat = compound: O=C(CCCCCCC(=O)Nc1ccccc1)NO [vorinostat]
# How it was run: as §1
# citarinostat = compound: O=C(CCCCCCNC(=O)c1cnc(N(c2ccccc2)c2ccccc2Cl)nc1)NO [citarinostat]
# How it was run: as §1
# silmitasertib = compound: O=C(O)c1ccc2c(c1)nc(Nc1cccc(Cl)c1)c1ccncc12 [silmitasertib]
# How it was run: as §1
# [10] = compound: O=C1NC(=O)C(c2cnc3ccccn23)=C1c1cn2c3c(cc(F)cc13)CN(C(=O)N1CCCCC1)CC2
# How it was run: as §1
# [11] = compound: c1cc(OCCN2CCCCC2)cc(-c2n[nH]c3ccc(-c4nnc[nH]4)cc23)c1
# How it was run: as §1
Target,log2 fold change (bafetinib),log2 fold change [1],log2 fold change (nilotinib),log2 fold change [2],log2 fold change (dasatinib),log2 fold change [3],log2 fold change [4],log2 fold change [5],log2 fold change (tipifarnib),log2 fold change (mubritinib),log2 fold change [6],log2 fold change [7],log2 fold change [8],log2 fold change [9],log2 fold change (entinostat),log2 fold change (vorinostat),log2 fold change (citarinostat),log2 fold change (silmitasertib),log2 fold change [10],log2 fold change [11]
OMA1 (UniProt Q96E52),inactive: 0.087,inactive: 0.062,inactive: -0.018,inactive: 0.027,inactive: -0.009,inactive: -0.023,inactive: 0.021,inactive: -0.103,inactive: 0.021,inactive: 0.002,inactive: -0.009,inactive: -0.048,inactive: -0.046,inactive: -0.029,inactive: -0.037,inactive: -0.225,inactive: 0.017,inactive: 0.013,inactive: 0.016,inactive: -0.023
NUCB2 (UniProt P80303),inactive: -0.024,inactive: -0.089,inactive: 0.017,inactive: 0.006,inactive: 0.085,inactive: -0.018,inactive: -0.008,inactive: -0.024,inactive: 0.002,inactive: 0.007,inactive: 0.013,inactive: -0.001,inactive: -0.003,inactive: -0.013,inactive: -0.011,inactive: -0.033,inactive: 0.024,inactive: 0.013,inactive: -0.011,inactive: -0.057
NUP43 (UniProt Q8NFH3),inactive: 0.01,inactive: 0.006,inactive: 0.018,inactive: 0,inactive: 0.107,inactive: 0.011,inactive: 0.006,inactive: -0.065,inactive: -0.048,inactive: 0.055,inactive: 0.042,inactive: -0.005,inactive: -0.053,inactive: 0.014,inactive: -0.003,inactive: 0.01,inactive: 0.091,inactive: 0.003,inactive: -0.028,inactive: 0.008
OGFR (UniProt Q9NZT2),inactive: -0.041,inactive: 0.114,inactive: -0.024,inactive: -0.093,inactive: -0.114,inactive: -0.008,inactive: 0.036,inactive: -0.002,inactive: 0.025,active: 0.328,inactive: 0.049,inactive: -0.198,inactive: 0.015,inactive: 0.068,inactive: -0.02,inactive: 0.096,inactive: 0.121,inactive: 0.003,inactive: -0.019,inactive: -0.092
NT5DC1 (UniProt Q5TFE4),inactive: 0.043,inactive: 0.004,inactive: 0.099,inactive: 0.069,inactive: 0.033,inactive: -0.016,inactive: 0.045,inactive: 0.069,inactive: -0.043,inactive: 0.001,inactive: -0.057,inactive: -0.052,inactive: -0.003,inactive: -0.012,inactive: -0.037,inactive: -0.013,inactive: 0.003,inactive: 0.025,inactive: -0.038,active: 0.236
PAAF1 (UniProt Q9BRP4),inactive: -0.011,inactive: -0.01,inactive: -0.084,inactive: 0.058,inactive: -0.051,inactive: -0.026,inactive: 0.018,inactive: 0.016,inactive: -0.03,inactive: 0.017,inactive: 0.028,inactive: -0.011,inactive: -0.078,inactive: 0.019,inactive: 0.006,inactive: -0.013,inactive: -0.003,inactive: -0.001,inactive: 0.014,inactive: -0.025
OXR1 (UniProt Q8N573),inactive: -0.098,inactive: -0.063,inactive: 0.079,inactive: -0.004,inactive: -0.034,inactive: -0.023,inactive: 0.081,inactive: 0.013,inactive: -0.038,inactive: 0.05,inactive: 0.03,inactive: 0,inactive: -0.157,inactive: -0.008,inactive: 0.023,inactive: -0.029,inactive: 0.062,inactive: -0.009,inactive: -0.044,inactive: -0.001
NUDT16 (UniProt Q96DE0),inactive: -0.044,inactive: -0.035,inactive: 0,inactive: 0.015,inactive: 0.058,inactive: -0.049,inactive: 0.107,inactive: 0.019,inactive: -0.02,inactive: 0.049,inactive: 0.02,inactive: 0.08,inactive: -0.01,active: 0.205,inactive: 0,inactive: -0.069,inactive: 0.018,inactive: 0.016,inactive: -0.106,inactive: 0.034
OSBPL8 (UniProt Q9BZF1),inactive: 0.182,inactive: 0.049,inactive: 0.295,inactive: -0.086,inactive: 0.066,inactive: -0.047,inactive: -0.225,inactive: -0.093,inactive: -0.117,inactive: 0.108,inactive: -0.06,inactive: -0.03,inactive: 0.063,inactive: 0.042,inactive: 0.012,inactive: 0.049,inactive: 0.005,inactive: 0,inactive: 0.079,inactive: -0.129
NUP98 (UniProt P52948),inactive: -0.008,inactive: 0.018,inactive: -0.034,inactive: -0.062,inactive: -0.077,inactive: -0.044,inactive: -0.026,inactive: -0.075,inactive: 0.005,inactive: 0,inactive: 0.018,inactive: -0.086,inactive: -0.025,inactive: -0.076,inactive: 0,inactive: 0.052,inactive: 0.028,inactive: 0.072,inactive: 0.001,inactive: -0.073
NUDCD2 (UniProt Q8WVJ2),inactive: 0.017,inactive: 0.033,inactive: -0.119,inactive: -0.216,inactive: -0.171,inactive: -0.026,inactive: 0.02,inactive: 0.066,inactive: -0.1,inactive: 0.077,inactive: -0.108,inactive: -0.099,inactive: -0.056,inactive: -0.172,inactive: 0.028,inactive: 0.147,inactive: 0.007,inactive: 0.063,inactive: -0.183,inactive: -0.044
OTUD7B (UniProt Q6GQQ9),inactive: -0.056,inactive: 0.239,inactive: -0.082,inactive: 0.08,inactive: 0.086,inactive: 0.135,inactive: -0.008,inactive: -0.087,inactive: -0.069,inactive: -0.045,inactive: 0.027,inactive: -0.12,inactive: -0.174,inactive: -0.131,inactive: 0.028,inactive: -0.026,inactive: 0.091,inactive: 0.152,inactive: 0.06,inactive: 0.203
P4HA1 (UniProt P13674),inactive: 0.047,inactive: -0.005,inactive: -0.018,inactive: 0.069,inactive: 0.067,inactive: -0.073,inactive: -0.117,inactive: 0.006,inactive: 0.09,inactive: -0.112,inactive: 0.001,inactive: -0.016,inactive: -0.036,inactive: 0.067,inactive: -0.012,inactive: -0.027,inactive: 0.004,inactive: 0.032,inactive: 0,inactive: -0.042
OAT (UniProt P04181),inactive: -0.038,inactive: -0.018,inactive: 0.036,inactive: -0.021,inactive: -0.109,inactive: -0.073,inactive: 0.026,inactive: 0.061,inactive: -0.004,inactive: 0.002,inactive: -0.051,inactive: -0.076,inactive: -0.235,inactive: -0.058,inactive: 0.029,inactive: 0.129,inactive: 0.131,inactive: -0.036,inactive: -0.031,inactive: 0.006
NUP133 (UniProt Q8WUM0),inactive: 0.017,inactive: 0.065,inactive: 0.004,inactive: -0.076,inactive: -0.038,inactive: 0,inactive: -0.051,inactive: -0.049,inactive: 0.022,inactive: -0.126,inactive: 0.034,inactive: 0.127,inactive: -0.024,inactive: -0.109,inactive: -0.008,inactive: 0.104,inactive: -0.004,inactive: 0.007,inactive: 0.039,inactive: -0.092
NT5DC2 isoform 2 (UniProt Q9H857),inactive: -0.023,inactive: -0.076,inactive: 0.038,inactive: 0.009,inactive: -0.009,inactive: -0.017,inactive: 0.005,inactive: 0.052,inactive: -0.02,inactive: 0.021,inactive: -0.028,inactive: 0.003,inactive: -0.035,inactive: -0.011,inactive: -0.006,inactive: -0.004,inactive: -0.001,inactive: -0.014,inactive: -0.029,inactive: -0.008
